Measurements published in patent publication US20150024955A1, “Methods of Identifying Modulators of Dephosphorylation of Histone Deacetylase” (THE J. DAVID GLADSTONE INSTITUTES, priority 2006, published 2015).
Results are given in words; binding and its absence hold for the method and conditions named. Some entries that bind do so weakly or less than the wild type. For part of these data: Sequences can lack the tags named with a protein.

Amino acid sequences for entries named in this document (tags omitted).
UniProt Q8C2B3: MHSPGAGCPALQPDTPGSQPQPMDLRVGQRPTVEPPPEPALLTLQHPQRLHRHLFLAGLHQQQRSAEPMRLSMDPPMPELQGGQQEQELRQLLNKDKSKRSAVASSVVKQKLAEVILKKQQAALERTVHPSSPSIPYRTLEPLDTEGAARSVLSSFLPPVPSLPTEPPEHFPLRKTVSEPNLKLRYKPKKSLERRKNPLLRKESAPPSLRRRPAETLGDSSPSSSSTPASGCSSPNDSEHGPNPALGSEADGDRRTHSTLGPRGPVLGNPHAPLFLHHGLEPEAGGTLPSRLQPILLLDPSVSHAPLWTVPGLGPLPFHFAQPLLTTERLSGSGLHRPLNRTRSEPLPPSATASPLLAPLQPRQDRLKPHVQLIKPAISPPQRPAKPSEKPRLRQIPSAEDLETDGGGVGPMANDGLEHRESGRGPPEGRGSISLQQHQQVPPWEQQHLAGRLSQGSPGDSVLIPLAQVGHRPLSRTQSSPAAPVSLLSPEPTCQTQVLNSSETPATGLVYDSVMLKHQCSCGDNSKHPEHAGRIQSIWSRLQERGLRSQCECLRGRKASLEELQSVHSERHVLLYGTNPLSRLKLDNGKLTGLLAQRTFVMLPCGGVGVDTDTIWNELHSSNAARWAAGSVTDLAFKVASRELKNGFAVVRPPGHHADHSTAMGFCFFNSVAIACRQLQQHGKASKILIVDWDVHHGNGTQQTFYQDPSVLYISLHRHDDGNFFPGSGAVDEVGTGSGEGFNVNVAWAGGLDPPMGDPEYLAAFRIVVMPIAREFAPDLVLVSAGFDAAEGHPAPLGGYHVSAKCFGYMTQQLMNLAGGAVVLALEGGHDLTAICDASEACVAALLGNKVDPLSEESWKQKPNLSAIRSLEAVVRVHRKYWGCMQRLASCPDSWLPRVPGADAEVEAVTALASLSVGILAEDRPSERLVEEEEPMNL

T1: FLAG-tagged human HDAC7 (human) (UniProt Q8WUI4)
T1 sequence (looked up): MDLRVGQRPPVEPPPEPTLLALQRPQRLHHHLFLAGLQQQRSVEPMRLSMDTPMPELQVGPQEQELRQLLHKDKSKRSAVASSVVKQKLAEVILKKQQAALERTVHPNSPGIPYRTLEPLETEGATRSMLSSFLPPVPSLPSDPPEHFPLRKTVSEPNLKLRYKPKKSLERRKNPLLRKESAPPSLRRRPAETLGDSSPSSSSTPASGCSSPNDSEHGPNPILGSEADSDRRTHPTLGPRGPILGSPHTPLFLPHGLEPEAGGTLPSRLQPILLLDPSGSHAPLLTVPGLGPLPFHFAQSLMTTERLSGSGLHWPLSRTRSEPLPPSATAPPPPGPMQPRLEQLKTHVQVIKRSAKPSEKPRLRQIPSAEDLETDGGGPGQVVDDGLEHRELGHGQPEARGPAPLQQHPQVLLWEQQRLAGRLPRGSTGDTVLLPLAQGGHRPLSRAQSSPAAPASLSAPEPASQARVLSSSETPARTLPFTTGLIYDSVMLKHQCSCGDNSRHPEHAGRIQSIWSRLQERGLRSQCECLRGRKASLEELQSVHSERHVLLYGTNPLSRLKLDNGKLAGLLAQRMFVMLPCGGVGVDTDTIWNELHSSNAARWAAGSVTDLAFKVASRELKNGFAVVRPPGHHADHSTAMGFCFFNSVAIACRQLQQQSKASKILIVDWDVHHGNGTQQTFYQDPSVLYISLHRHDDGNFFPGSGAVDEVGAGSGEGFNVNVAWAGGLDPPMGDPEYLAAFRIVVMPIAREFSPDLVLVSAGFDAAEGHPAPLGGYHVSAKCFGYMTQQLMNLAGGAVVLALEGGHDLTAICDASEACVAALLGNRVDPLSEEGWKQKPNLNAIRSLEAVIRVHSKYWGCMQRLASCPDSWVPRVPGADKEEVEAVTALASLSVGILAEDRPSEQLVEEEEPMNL


Legend:
[1] = target: T1, FLAG-tagged human HDAC7 (human); assay: anti-FLAG immunoprecipitation of HDAC7-Flag from DO11.10 cells, Western blot
[2] = target: endogenous HDAC7 of mouse cells (primary thymocytes; DO11.10-Empty cells) (mouse) (UniProt Q8C2B3); assay: immunoprecipitation with α-MYPT1 from mouse primary thymocyte lysate, anti-HDAC7 Western blot
[3] = target: T1, FLAG-tagged human HDAC7 (human); assay: anti-FLAG immunoprecipitation of HDAC7-Flag from DO11.10 cells, Western blot for endogenous partner

| binding [1] | binding [2] | binding [3] | Binder |
| --- | --- | --- | --- |
| binds | – | – | HDAC7 kinase, PKD1 (enzyme, UniProt Q62101 1-918, looked up) MSVPPLLRPPSPLLPAAAAVAAAAAALVPGSGPAPFPAPGAAPAGGISFHLQIGLSREPVLLLQDSSGDYSLAHVREMACSIVDQKFPECGFYGLYDKILLFRHDPASDNILQLVKIASDIQEGDLIEVVLSASATFEDFQIRPHALFVHSYRAPAFCDHCGEMLWGLVRQGLKCEGCGLNYHKRCAFKIPNNCSGVRRRRLSNVSLTGLGTVRTASAEFSTSVPDEPLLSPVSPGFEQKSPSESFIGREKRSNSQSYIGRPIQLDKLLMSKVKVPHTFVIHSYTRPTVCQFCKKLLKGLFRQGLQCKDCRFNCHKRCAPKVPNNCLGEVTINGELLSPGAESDVVMEEGSDDNDSERNSGLMDDMDEAMVQDTEMALAEGQSGGAEMQDPDADQEDSNRTISPSTSNNIPLMRVVQSVKHTKRRSSTVMKEGWMVHYTSKDTLRKRHYWRLDSKCITLFQNDTGSRYYKEIPLSEILCLEPAKPSALTPVGATPHCFEITTANVVYYVGENVVNPSSSPPNNSVLPSGIGPDVARMWEVAIQHALMPVIPKGSSVGSGSNSHKDISVSISVSNCQIQENVDISTVYQIFPDEVLGSGQFGIVYGGKHRKTGRDVAIKIIDKLRFPTKQESQLRNEVAILQNLHHPGVVNLECMFETPERVFVVMEKLHGDMLEMILSSEKGRLPEHITKFLITQILVALRHLHFKNIVHCDLKPENVLLASADPFPQVKLCDFGFARIIGEKSFRRSVVGTPAYLAPEVLRNKGYNRSLDMWSVGVIIYVSLSGTFPFNEDEDIHDQIQNAAFMYPPNPWKEISHEAIDLINNLLQVKMRKRYSVDKTLSHPWLQDYQTWLDLRELECRIGERYITHESDDSRWEQYAGEQGLQYPAHLISLSASHSDSPEAEEREMKALSERVSIL |
| – | binds | binds | Protein phosphatase 1 regulatory subunit 12A (Myosin phosphatase targeting subunit 1) (protein, mouse, UniProt Q9DBR7 1-1029, looked up) MKMADAKQKRNEQLKRWIGSETDLEPPVVKRQKTKVKFDDGAVFLAACSSGDTDEVLKLLHRGADINYANVDGLTALHQACIDDNVDMVKFLVENGANINQPDNEGWIPLHAAASCGYLDIAEFLIGQGAHVGAVNSEGDTPLDIAEEEAMEELLQNEVNRQGVDIEAARKEEERVMLRDARQWLNSGHISDVRHAKSGGTALHVAAAKGYTEVLKLLIQAGYDVNIKDYDGWTPLHAAAHWGKEEACRILVDNLCDMETVNKVGQTAFDVADEDILGYLEELQKKQTLLHSEKRDKKSPLIESTANMENNQPQKAFKNKETLIIEPEKNASRIESLEHEKADEEEEGKKDESSCSSEEDEEDDSESEAETDKTKPMASVSNAHTSSTQAAPAAVTAPTLSSNQGTPTSPVKKFPISTTKISPKEEERKDESPASWRLGLRKTGSYGALAEISASKEAQKEKDTAGVMRSASSPRLSSSLDNKEKEKDNKGTRLAYVTPTIPRRLASTSDIEEKENRESSSLRTSSSYTRRKWEDDLKKNSSINEGSTYHRSCSFGRRQDDLISCSVPSTTSTPTVTSAAGLQRSLPSSTSTAAKTPPGSSSAGTQSSTSNRLWAEDSTEKEKDSAPTAVTIPVAPTVVNAAAPSTTTLTTTTAGTVSEVRERRRSYLTPVRDEESESQRKARSRQARQSRRSTQGVTLTDLQEAEKTIGRSRSTRTREQENEEKEKEEKEKQDKEKQEEKKESEASREDEYKQKYSRTYDETYTRYRPVSTSSSSAPSSSSLSTLGSTLYASSQLNRPNSLVGITSAYSRGLAKENEREGEKKEEEKEGEDKSQPKSIRERRRPREKRRSTGVSFWTQDSDENEQERQSDTEDGSSKRETQTDSVSRYDSSSTSSSDRYDSLLGRSASYSYLEDRKPYSSRLEKDDSTDFKKLYEQILAENEKLKAQLHDTNMELTDLKLQLEKATQRQERFADRSQLEMEKRERRALERRISEMEEELKMLPDLKADNQRLKDENGALIRVISKLSK |
